Measurements: patent US20130074217A1 (NUTECH VENTURES, published 2013)
These are yes or no findings as the source states them, for the method shown. Binding seen in cells or lysates may run through a third protein. Some results given as binding are weak or reduced against the parent protein; the word gives no strength. Tags and fused reporters may be left off the sequences shown.

Protein sequences, listed by entry. Tags and fused reporters are not part of them. Residues count along the entry.
UniProt Q9FL28, residues 24-1173: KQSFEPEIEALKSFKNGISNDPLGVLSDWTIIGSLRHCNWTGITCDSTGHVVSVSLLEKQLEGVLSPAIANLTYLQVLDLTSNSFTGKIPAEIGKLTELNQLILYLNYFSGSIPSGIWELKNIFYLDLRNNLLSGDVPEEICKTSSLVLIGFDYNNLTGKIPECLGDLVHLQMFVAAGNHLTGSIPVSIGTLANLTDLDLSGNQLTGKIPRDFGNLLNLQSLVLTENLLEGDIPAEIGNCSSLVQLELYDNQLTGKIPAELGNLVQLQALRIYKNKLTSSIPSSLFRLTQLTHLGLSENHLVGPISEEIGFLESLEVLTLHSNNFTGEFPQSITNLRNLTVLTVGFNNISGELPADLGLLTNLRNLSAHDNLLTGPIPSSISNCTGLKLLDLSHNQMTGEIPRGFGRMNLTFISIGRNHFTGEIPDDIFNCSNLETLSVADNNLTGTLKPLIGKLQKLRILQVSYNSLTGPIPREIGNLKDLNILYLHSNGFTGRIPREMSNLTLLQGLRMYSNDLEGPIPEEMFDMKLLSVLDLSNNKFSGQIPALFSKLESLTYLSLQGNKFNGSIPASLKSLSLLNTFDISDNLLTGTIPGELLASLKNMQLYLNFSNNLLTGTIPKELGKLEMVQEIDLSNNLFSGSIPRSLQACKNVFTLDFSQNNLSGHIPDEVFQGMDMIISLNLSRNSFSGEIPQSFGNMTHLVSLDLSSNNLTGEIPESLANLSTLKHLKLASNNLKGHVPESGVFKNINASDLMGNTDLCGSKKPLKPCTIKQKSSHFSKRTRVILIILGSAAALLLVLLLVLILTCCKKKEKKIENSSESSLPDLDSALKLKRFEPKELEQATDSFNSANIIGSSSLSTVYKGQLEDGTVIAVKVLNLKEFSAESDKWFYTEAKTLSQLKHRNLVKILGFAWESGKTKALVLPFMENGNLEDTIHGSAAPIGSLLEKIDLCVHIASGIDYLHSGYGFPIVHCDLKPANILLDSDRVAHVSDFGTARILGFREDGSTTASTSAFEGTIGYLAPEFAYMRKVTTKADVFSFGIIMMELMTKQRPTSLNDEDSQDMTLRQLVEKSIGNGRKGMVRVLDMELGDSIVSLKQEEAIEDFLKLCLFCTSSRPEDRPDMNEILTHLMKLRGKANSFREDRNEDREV
UniProt C0LGT6, residues 25-1031: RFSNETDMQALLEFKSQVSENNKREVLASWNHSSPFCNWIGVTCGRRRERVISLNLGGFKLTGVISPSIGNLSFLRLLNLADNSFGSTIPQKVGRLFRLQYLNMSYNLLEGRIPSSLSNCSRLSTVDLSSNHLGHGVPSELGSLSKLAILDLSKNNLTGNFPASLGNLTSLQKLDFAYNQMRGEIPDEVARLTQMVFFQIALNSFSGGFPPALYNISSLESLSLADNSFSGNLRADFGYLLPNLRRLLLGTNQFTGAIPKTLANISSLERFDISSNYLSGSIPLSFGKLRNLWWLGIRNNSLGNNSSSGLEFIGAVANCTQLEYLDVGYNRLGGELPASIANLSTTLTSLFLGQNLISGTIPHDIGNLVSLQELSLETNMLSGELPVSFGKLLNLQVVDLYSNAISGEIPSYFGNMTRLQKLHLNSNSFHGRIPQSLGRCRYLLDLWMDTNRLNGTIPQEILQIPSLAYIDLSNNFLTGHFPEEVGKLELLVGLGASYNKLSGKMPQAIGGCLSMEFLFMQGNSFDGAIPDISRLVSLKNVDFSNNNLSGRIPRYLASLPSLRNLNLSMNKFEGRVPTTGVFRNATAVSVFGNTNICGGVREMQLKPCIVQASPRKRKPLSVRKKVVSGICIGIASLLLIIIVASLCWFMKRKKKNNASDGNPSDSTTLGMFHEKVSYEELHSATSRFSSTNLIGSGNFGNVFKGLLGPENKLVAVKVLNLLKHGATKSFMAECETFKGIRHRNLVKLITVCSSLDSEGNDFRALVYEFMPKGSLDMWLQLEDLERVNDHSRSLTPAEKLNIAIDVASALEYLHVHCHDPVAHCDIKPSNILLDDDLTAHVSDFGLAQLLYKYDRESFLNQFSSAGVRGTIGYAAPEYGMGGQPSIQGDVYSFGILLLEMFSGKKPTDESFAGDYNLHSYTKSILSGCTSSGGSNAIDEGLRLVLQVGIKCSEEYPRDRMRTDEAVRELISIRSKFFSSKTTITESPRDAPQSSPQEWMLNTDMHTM

Key:
[1] = target: native FLS2 protein (Arabidopsis thaliana) (UniProt Q9FL28); experiment: co-immunoprecipitation with GFP Trap beads from A. thaliana GRP7-GFP plants, anti-FLS2 immunoblot, with or without 1 µM flg22
[2] = target: native FLS2 protein (Arabidopsis thaliana) (UniProt Q9FL28); experiment: co-immunoprecipitation with GFP Trap beads, Col-0 and HopU1 A. thaliana plants
[3] = target: native FLS2 protein (Arabidopsis thaliana) (UniProt Q9FL28); experiment: co-immunoprecipitation with GFP Trap beads, A. thaliana, with or without flg22 (panel D)
[4] = target: native FLS2 protein (Arabidopsis thaliana) (UniProt Q9FL28); experiment: co-immunoprecipitation with GFP Trap beads from A. thaliana plants with or without HopU1-HA
[5] = target: EFR-3×HA (Arabidopsis thaliana) (UniProt C0LGT6); experiment: co-immunoprecipitation with GFP Trap beads, transient co-expression in N. benthamiana
[6] = target: FLS2-3×myc (Arabidopsis thaliana) (UniProt Q9FL28); experiment: as above
[7] = target: FLS2-3×myc (Arabidopsis thaliana) (UniProt Q9FL28); experiment: co-immunoprecipitation with GFP Trap beads, N. benthamiana (panel B)
[8] = target: EFR-3×HA (Arabidopsis thaliana) (UniProt C0LGT6); experiment: co-immunoprecipitation with GFP Trap beads, N. benthamiana
[9] = target: FLS2-3×myc (Arabidopsis thaliana) (UniProt Q9FL28); experiment: as above

Measured: binding

B1: GRP7-GFP (protein, not shown: large carriers)
chain: MASGDVEYRCFVGGLAWATDDRALETAFAQYGDVIDSKIINDRETGRSRGFGFVTFKDEKAMKDAIEGMNGQDLDGRSITVNEAQSRGSGGGGGHRGGGGGGYRSGGGGGYSGGGGSYGGGGGRREGGGGYSGGGGGYSSRGGGGGSYGGGRREGGGGYGGGEGGGYGGSGGGGGW
binds: [1] | [2] | [3] | [4]

B2: GRP7-eGFP (other)
chain: B1 chain
notes: Transiently expressed in N. benthamiana under the 35S promoter; also called 35S::GRP7-eGFP; not shown: C-terminal enhanced green fluorescent protein (eGFP) tag
binds: [5] | [6] | [7] | [8] | [9]
